No dose or concentration is given here for some results.
Test system: cellular proteome in Huh-7 cells
Assay: In-gel fluorescence analysis / activity-based protein profiling of Huh-7 cellular proteome
Type: cell-based
Conditions: Huh-7 proteome, click reaction with TAMRA-N3, SDS-Page

`CN(C(=O)CCl)c1ccccc1C(=O)c1ccccc1` [IITK3001, N-(2-benzoylphenyl)-2-chloro-N-methylacetamide] was tested, and the “molecular weight of covalently labelled protein band” value was roughly 55 kDa.

Source: patent publication US20250099407A1, “2-AMINO BENZOPHENONE DERIVATIVES FOR TARGETED FERROPTOSIS INDUCTION IN CANCER THERAPY” (INDIAN INSTITUTE OF TECHNOLOGY KANPUR, priority 2023, published 2025)
